# Measured values published in PubChem BioAssay AID1259415 (National Center for Advancing Translational Sciences (NCATS), 2018).
# About 18,000 (4.4%) of roughly 410,000 compounds were called active. Inconclusive results, whose numbers are uncertain, are shown with a selection of clear calls. Rule as the data show it: active = activity change below about -60%; inconclusive = no clear call, values can overlap the other calls; inactive = above about -39%.
# Test: qHTS Assay for inhibitors of the human cytomegalovirus (HCMV)
# Details: HFF cells, HCMV-luciferase reporter, 72 h; at 57.5 µM; stronger effect = lower value
# In short: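 After 16 h attachment at 37C, HFF cells received test compound and HCMV-luciferase (1 PFU/cell); reporter luminescence read 72 h later, data normalized against buffer-only and known inhibitor Salinomycin.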
# % is scaled to controls: 0 for no effect and ±100 for the full control effect.
row,SMILES,"activity change, negative = inhibition"
1,N#Cc1ccc2c(c1)NC(=O)C1CCCN21 (centres undefined),inactive: 2.52%
2,CC1(C(=O)Nc2cnc3ccccc3c2)CCN1Cc1ccccc1Cl (centres undefined),active: -76.5%
3,Oc1ccccc1N1CCN(c2ncnc3scc(-c4ccc(F)cc4)c23)CC1,active: -81.4%
4,CC(=O)c1cccc(NC(=O)Nc2ccc(C(=O)N3CCCC3)cc2)c1,inconclusive: -48.1%
5,Cc1ccc(SCc2nc(N)nc(Nc3ccccc3C)n2)cc1C,active: -101%
6,O=c1ccccn1Cc1c(Cl)cccc1Cl,inactive: -6.52%
7,CCOC(=O)c1[nH]c(C)c(/C(O)=C2\C(=O)C(=O)N(CCN(C)C)C2c2ccco2)c1C (centres undefined),inconclusive: -40%
8,CC(=O)c1cccc(NC(=O)Oc2ccccc2)c1,inconclusive: -40.6%
9,Cc1nn(C)cc1CN1CCCC(C(=O)c2ccc(-c3ccccc3)c(F)c2)C1 (centres undefined),inconclusive: -59.6%
10,CC(=O)Nc1ccc(/C(C)=N/NC(=O)c2ccncc2)cc1,inconclusive: -56.8%
11,CCOc1ccc(-n2c(=O)c3sccc3n(CC(=O)NCC3CCCO3)c2=O)cc1 (centres undefined),inconclusive: -43.2%
12,COCCN(C(=O)COC(=O)c1ccc(-c2ccccc2)cc1)c1c(N)n(Cc2ccccc2)c(=O)[nH]c1=O,inactive: -16.8%
13,CS(=O)(=O)c1oc(-c2ccc(F)cc2)nc1S(=O)(=O)c1ccc(Cl)cc1,active: -96.2%
14,N#C/C(=C(/O)COC(=O)CCCNC(=O)c1ccc(Cl)cc1)c1nc2ccccc2[nH]1,active: -93.4%
15,C/C(=N\NC(=O)Cc1ccccc1Cl)c1cccnc1,inactive: -15.4%
16,CCN(C(=O)c1cc(Cl)ccc1Cl)C1CCS(=O)(=O)C1 (centres undefined),inactive: 10.7%
17,CCc1ccccc1NC(=O)CN1CCN(C(=O)COc2ccccc2C#N)CC1,inconclusive: -50.2%
18,CCSc1ncc(Cl)c(C(=O)Nc2ccc(S(=O)(=O)N3CCC(C)CC3)cc2)n1,inconclusive: -45.8%
19,COc1ccc(OC)c(C(=O)CN2C(=O)NC(C)(c3ccccc3)C2=O)c1 (centres undefined),active: -60.7%
20,CC(C)C(=O)NNC(=O)c1c(O)c2ccccc2[nH]c1=O,inconclusive: -41.7%
21,CCOC(=O)c1c(-c2cccs2)csc1N,inconclusive: -41.4%
22,Cc1ccc(NC(=O)CSC2=Nc3ccccc3C3=NC(Cc4ccccc4)C(=O)N23)cc1C (centres undefined),inconclusive: -58.1%
23,COc1ccc2cc(-c3nc(Cl)c4c5c(sc4n3)CCCC5)c(=O)oc2c1,inactive: 14.2%
24,CCOc1ccc(-c2c(C(=O)N/N=C/c3ccc(C)cc3)nnn2-c2nonc2N)cc1,inconclusive: -57.5%

# 6 of the compounds above, tab-delimited:
row	SMILES	activity change, negative = inhibition
5	Cc1ccc(SCc2nc(N)nc(Nc3ccccc3C)n2)cc1C	active: -101%
9	Cc1nn(C)cc1CN1CCCC(C(=O)c2ccc(-c3ccccc3)c(F)c2)C1 (centres undefined)	inconclusive: -59.6%
12	COCCN(C(=O)COC(=O)c1ccc(-c2ccccc2)cc1)c1c(N)n(Cc2ccccc2)c(=O)[nH]c1=O	inactive: -16.8%
15	C/C(=N\NC(=O)Cc1ccccc1Cl)c1cccnc1	inactive: -15.4%
21	CCOC(=O)c1c(-c2cccs2)csc1N	inconclusive: -41.4%
22	Cc1ccc(NC(=O)CSC2=Nc3ccccc3C3=NC(Cc4ccccc4)C(=O)N23)cc1C (centres undefined)	inconclusive: -58.1%
